Data from paper PMC4695125.
No constants are given. Whether binding was seen depends on the method and setting. For some assays here: In cells and extracts the contact can be indirect. Some binding calls cover weakened binding; strength is not graded here.

Amino acid sequences for entries named in this document (tags omitted). Residues count along the entry.
UniProt Q15109, residues 23-342: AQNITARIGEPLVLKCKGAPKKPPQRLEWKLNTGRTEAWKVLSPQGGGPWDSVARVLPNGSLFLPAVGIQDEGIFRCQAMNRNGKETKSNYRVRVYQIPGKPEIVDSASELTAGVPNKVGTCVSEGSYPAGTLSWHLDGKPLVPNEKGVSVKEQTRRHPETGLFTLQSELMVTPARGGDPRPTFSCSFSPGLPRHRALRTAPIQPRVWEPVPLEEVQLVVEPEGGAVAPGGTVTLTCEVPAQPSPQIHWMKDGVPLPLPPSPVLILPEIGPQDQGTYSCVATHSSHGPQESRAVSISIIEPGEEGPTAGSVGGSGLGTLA
UniProt P27695: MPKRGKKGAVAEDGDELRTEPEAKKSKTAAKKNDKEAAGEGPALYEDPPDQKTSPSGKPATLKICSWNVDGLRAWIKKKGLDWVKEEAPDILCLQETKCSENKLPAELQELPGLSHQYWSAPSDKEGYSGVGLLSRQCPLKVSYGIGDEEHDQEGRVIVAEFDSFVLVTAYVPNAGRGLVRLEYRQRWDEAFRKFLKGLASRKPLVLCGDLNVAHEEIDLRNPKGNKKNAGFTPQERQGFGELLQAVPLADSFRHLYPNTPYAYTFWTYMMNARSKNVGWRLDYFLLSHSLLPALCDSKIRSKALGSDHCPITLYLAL

Legend:
[1] = target: recombinant human RAGE-Fc (human) (UniProt Q15109); experiment: co-IP; recombinant rh Ac-APE1/Ref-1 mixed with rh RAGE-Fc; immunoprecipitation with anti-APE1/Ref-1 or anti-RAGE antibody, blot with the other; both purified
[2] = target: recombinant human RAGE-Fc (human) (UniProt Q15109); experiment: co-IP; conditioned medium of ASA-treated MDA-MB-231 cells (secreted Ac-APE1/Ref-1) mixed with RAGE-Fc; immunoprecipitation with anti-APE1/Ref-1 or anti-RAGE antibody, blot with the other; only the target purified

Row | binding [1] | binding [2] | Substance
1 | binds | – | recombinant human acetylated APE1/Ref-1 (apurinic apyrimidinic endonuclease 1/redox factor-1) (from UniProt P27695 1-318)
2 | – | binds | secreted acetylated APE1/Ref-1 from ASA/TSA-treated MDA-MB-231 cells (from UniProt P27695 1-318)
